Experimental data taken from paper PMC5515986.
These are yes or no findings as the source states them, for the method shown. In cells and extracts the contact can be indirect. Some results given as binding are weak or reduced against the parent protein; the word gives no strength. Tags and fused reporters may be left off the sequences shown.

Chains of the proteins cited; added tags and fusions are not shown. Residues count along the entry.
UniProt O22476, residues 24-1196: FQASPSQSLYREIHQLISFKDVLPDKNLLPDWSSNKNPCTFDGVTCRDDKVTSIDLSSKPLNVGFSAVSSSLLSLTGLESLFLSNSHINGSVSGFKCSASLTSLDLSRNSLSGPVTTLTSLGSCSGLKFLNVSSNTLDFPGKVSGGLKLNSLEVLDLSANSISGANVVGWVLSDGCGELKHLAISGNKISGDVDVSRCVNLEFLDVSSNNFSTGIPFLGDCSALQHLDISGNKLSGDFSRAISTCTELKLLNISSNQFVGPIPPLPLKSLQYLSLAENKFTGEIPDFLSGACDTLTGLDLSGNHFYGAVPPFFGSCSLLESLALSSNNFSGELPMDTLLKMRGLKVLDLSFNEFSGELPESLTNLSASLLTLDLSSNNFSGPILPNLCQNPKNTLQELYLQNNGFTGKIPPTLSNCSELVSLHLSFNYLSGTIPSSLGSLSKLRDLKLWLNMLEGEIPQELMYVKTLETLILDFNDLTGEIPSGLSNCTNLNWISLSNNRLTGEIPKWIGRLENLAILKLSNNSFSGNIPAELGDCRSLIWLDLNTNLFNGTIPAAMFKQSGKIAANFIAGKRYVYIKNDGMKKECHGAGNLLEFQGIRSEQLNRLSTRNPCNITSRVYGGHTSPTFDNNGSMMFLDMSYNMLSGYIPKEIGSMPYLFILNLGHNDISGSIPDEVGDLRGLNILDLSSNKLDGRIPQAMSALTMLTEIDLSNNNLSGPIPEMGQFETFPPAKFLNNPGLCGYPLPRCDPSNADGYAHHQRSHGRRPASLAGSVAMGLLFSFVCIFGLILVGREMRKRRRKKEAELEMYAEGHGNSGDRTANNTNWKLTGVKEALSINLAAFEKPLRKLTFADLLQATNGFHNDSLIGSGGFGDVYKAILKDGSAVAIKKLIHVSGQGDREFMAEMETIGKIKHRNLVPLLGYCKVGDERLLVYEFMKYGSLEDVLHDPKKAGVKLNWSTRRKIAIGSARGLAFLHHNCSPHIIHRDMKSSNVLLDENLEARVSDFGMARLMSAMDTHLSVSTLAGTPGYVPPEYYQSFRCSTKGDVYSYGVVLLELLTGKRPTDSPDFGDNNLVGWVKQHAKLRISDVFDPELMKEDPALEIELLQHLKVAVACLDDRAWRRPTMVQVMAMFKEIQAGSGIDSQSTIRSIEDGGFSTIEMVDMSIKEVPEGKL

T1: FLAG–BIL4 (full-length BIL4 attached to the C-terminus of FLAG, 35S promoter) (Arabidopsis thaliana) (UniProt Q9M1V9)
T1 sequence: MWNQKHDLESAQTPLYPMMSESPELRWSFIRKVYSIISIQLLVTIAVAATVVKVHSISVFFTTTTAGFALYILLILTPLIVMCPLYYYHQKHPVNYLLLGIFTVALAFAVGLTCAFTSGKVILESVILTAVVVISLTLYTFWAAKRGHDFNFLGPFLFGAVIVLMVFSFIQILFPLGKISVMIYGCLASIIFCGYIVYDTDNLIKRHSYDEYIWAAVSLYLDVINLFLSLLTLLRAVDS

T2: BIL4–nEYFP (full-length BIL4 fused to the N-terminal half of enhanced yellow fluorescence protein) (Arabidopsis thaliana) (UniProt Q9M1V9)
T2 sequence: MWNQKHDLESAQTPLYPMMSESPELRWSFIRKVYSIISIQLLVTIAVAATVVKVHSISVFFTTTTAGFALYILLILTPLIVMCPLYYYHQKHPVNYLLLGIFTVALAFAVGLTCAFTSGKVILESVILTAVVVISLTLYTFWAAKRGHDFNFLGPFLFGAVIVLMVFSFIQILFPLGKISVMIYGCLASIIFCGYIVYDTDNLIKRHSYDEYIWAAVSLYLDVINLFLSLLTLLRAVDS


Legend:
[1] = biological target: T1, FLAG–BIL4 (full-length BIL4 attached to the C-terminus of FLAG, 35S promoter) (Arabidopsis thaliana); test: co-IP; extract of 7-day-old transgenic Arabidopsis seedlings in 50 mM Tris-HCl pH 7.5, 100 mM NaCl, 2 mM EDTA, 1% CHAPS; FLAG–BIL4 immunoprecipitated with anti-Flag M2 affinity gel at 4 °C for 30 min; blots with anti-GFP and anti-Flag
[2] = biological target: T2, BIL4–nEYFP (full-length BIL4 fused to the N-terminal half of enhanced yellow fluorescence protein) (Arabidopsis thaliana); test: split reporter; BiFC in cultured Arabidopsis cells; nEYFP and cEYFP fusions introduced by Agrobacterium; microscopy 4 days after inoculation

| binding [1] | binding [2] | Molecule |
| --- | --- | --- |
| binds |  | BRI1–GFP (BRI1pro::BRI1–GFP) (from UniProt O22476 24-1196) (receptor) |
|  | binds | BRI1–cEYFP (full-length BRI1 fused to the C-terminal half of EYFP) (from UniProt O22476 24-1196) (receptor) |
|  | no binding | CERK1–cEYFP (receptor, UniProt A8R7E6 24-617) KCRTSCPLALASYYLENGTTLSVINQNLNSSIAPYDQINFDPILRYNSNIKDKDRIQMGSRVLVPFPCECQPGDFLGHNFSYSVRQEDTYERVAISNYANLTTMESLQARNPFPATNIPLSATLNVLVNCSCGDESVSKDFGLFVTYPLRPEDSLSSIARSSGVSADILQRYNPGVNFNSGNGIVYVPGRDPNGAFPPFKSSKQDGVGAGVIAGIVIGVIVALLLILFIVYYAYRKNKSKGDSFSSSIPLSTKADHASSTSLQSGGLGGAGVSPGIAAISVDKSVEFSLEELAKATDNFNLSFKIGQGGFGAVYYAELRGEKAAIKKMDMEASKQFLAELKVLTRVHHVNLVRLIGYCVEGSLFLVYEYVENGNLGQHLHGSGREPLPWTKRVQIALDSARGLEYIHEHTVPVYVHRDIKSANILIDQKFRAKVADFGLTKLTEVGGSATRGAMGTFGYMAPETVYGEVSAKVDVYAFGVVLYELISAKGAVVKMTEAVGEFRGLVGVFEESFKETDKEEALRKIIDPRLGDSYPFDSVYKMAELGKACTQENAQLRPSMRYIVVALSTLFSSTGNWDVGNFQNEDLVSLMSGR |
